In PubChem BioAssay AID504847 (National Center for Advancing Translational Sciences (NCATS), 2011):
Hit rate of the full screen: of about 400,000 compounds, about 3,700 (0.93%) were called active. Inconclusive results, whose numbers are uncertain, are shown with a selection of clear calls. The call rests on the fitted dose curve; in most records, active means well fitted inhibition curve with a large enough effect; inconclusive means small, poorly fitted or top-dose-only effect, or another doubt; inactive means no such curve, though single readings can be large or run the other way. Where the call is inconclusive, the potency comes from a doubtful curve fit.

Chains of the proteins cited; added tags and fusions are not shown. Lines headed by an entry give the natural chain unless they say otherwise; changes in a name come on top.
UniProt P11473: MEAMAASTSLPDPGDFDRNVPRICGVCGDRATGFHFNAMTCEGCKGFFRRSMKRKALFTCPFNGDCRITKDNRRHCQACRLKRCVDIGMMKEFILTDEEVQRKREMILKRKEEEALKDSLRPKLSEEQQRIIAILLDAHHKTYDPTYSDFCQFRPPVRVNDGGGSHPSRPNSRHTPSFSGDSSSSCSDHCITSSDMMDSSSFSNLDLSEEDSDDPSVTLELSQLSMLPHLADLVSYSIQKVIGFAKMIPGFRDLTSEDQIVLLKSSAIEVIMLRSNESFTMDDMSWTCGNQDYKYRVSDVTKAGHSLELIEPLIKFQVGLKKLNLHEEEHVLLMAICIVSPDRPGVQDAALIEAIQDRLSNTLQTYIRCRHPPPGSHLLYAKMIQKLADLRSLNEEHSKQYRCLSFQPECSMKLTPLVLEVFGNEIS

Target: Vitamin D3 receptor (Homo sapiens) (UniProt P11473)
Assay: Inhibitors of the vitamin D receptor (VDR): qHTS
Details: VDR-SRC2-3 peptide fluorescence polarization, 2 h; max response, negative = inhibition: active compounds read low
Outline: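 Signal is fluorescence polarization, reporting how far test compounds block the interaction of VDR with the SRC2-3 coregulator peptide after a 2 h room-temperature incubation.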
On the % scale 0 is the no-effect control and ±100 the full control effect; potency means the concentration at half of the fitted maximal effect.

Row | SMILES | max response, negative = inhibition | Potency
1 | O=C(/C=C/c1cn(CC(O)CN2CCCCCC2)c2ccccc12)c1cccs1 (stereo not given) | inactive: 16.5% | 
2 | C/C(=N/Nc1ncc(Br)cn1)c1ccc(Br)cc1 |  | inconclusive: 50.1 µM [inhibitor, partial curve, poor fit]
3 | COc1cc(OC)c(NC(=O)Cn2c(=O)cc(C)c3c(C)nn(-c4ccc(C)cc4)c32)cc1Cl | inactive: 0.625% | 
4 | Cc1ccc(Cn2c(/C=C/c3ccco3)nc3ccccc32)cc1 | inactive: -1.11% | 
5 | CS(=O)(=O)Nc1ccc(C(=O)NCCSCc2ccco2)cc1 | inactive: 3.32% | 
6 | CC(=O)c1ccccc1OC(=O)COc1ccc(Cl)cc1C |  | inconclusive: 39.8 µM [inhibitor, partial curve, poor fit]
7 | N#Cc1ccc(CN2CCC3(CC2)CCN(C(=O)c2cc(C(F)(F)F)cc(C(F)(F)F)c2)CC3)cc1 |  | inconclusive: 89.1 µM [inhibitor, partial curve, poor fit]
8 | CC1=CC(c2ccccc2)n2nc(NC(=O)CCC(=O)O)nc2N1 (stereo not given) | inactive: 6.97% | 
9 | COCCn1c(SCc2ccccc2Cl)nc2c1c(=O)[nH]c(=O)n2C | inactive: -3.53% | 
10 | COc1cc(/C=C2\C(=N)N3N=CSC3=NC2=O)ccc1OS(=O)(=O)c1ccccc1 |  | active: 79.4 µM
11 | O=C(/C=C/c1cccs1)c1cc(F)ccc1OC(=O)N1CCOCC1 |  | inconclusive: 63.1 µM [inhibitor, partial curve, poor fit]
12 | CCN(CC)C(=O)c1cc([N+](=O)[O-])cc2c1-c1ccc([N+](=O)[O-])cc1C2=C(C#N)C#N |  | active: 25.1 µM
13 | O=S1(=O)[C@H]2C[C@@H]3C=C[C@@]2(CN1Cc1ccc(F)cc1)O3 |  | inconclusive: 89.1 µM [inhibitor, partial curve, poor fit]
14 | CN(C(=O)c1cccc(NC(=O)Cc2ccc(NC(=O)C3CCCN(S(=O)(=O)c4cccc([N+](=O)[O-])c4)C3)cc2)c1)C1CCCC1 (stereo not given) |  | inconclusive: 39.8 µM [inhibitor, partial curve, poor fit]
15 | Cc1cc(N2CCN(C)CC2)nc2ccc(NC(=S)N3CCN(c4ccccn4)CC3)cc12 | inactive: 10% | 
16 | O=C(OCn1ncc(Cl)c(Cl)c1=O)c1ccc(C(F)(F)F)cc1 |  | active: 20 µM
17 | O=C(NCc1ccncc1)C(=O)Nc1nccs1 | inactive: -4.12% | 
18 | O=C(Nc1nnc(SCc2ccc(Cl)cc2)s1)c1ccco1 |  | inconclusive: 3.16 µM [inhibitor, single point]
19 | Cc1oc(-c2ccc(Cl)cc2)nc1CN1CCCC(C(=O)NC2CC2)C1 (stereo not given) |  | inconclusive: 39.8 µM [inhibitor, partial curve, poor fit]
20 | O=C(CC1Oc2ccccc2NC1=O)NCc1ccccc1 (stereo not given) |  | inconclusive: 79.4 µM [inhibitor, single point]
21 | COc1ccccc1CNC(=O)C(NS(=O)(=O)c1ccc2c(c1)OCCO2)C(C)C (stereo not given) |  | inconclusive: 56.2 µM [inhibitor, partial curve, poor fit]
22 | CN1CCN(C2=C(Cl)C(=O)C(c3cnc(N4CCCCC4)s3)=C(Cl)C2=O)CC1 |  | active: 50.1 µM
23 | CCOc1ccc(C(=O)NC(=S)Nc2ccc(N3CCCCC3)cc2)cc1[N+](=O)[O-] |  | inconclusive: 89.1 µM [inhibitor, single point]

Already shown: entries from further up.
Row | SMILES | max response, negative = inhibition | Potency
12 | CCN(CC)C(=O)c1cc([N+](=O)[O-])cc2c1-c1ccc([N+](=O)[O-])cc1C2=C(C#N)C#N |  | active: 25.1 µM
13 | O=S1(=O)[C@H]2C[C@@H]3C=C[C@@]2(CN1Cc1ccc(F)cc1)O3 |  | inconclusive: 89.1 µM [inhibitor, partial curve, poor fit]
14 | CN(C(=O)c1cccc(NC(=O)Cc2ccc(NC(=O)C3CCCN(S(=O)(=O)c4cccc([N+](=O)[O-])c4)C3)cc2)c1)C1CCCC1 (stereo not given) |  | inconclusive: 39.8 µM [inhibitor, partial curve, poor fit]

(cont.)

Row | SMILES | max response, negative = inhibition | Potency
24 | S=C(NCCc1ccncc1)Nc1ccccc1 | inactive: -9.56% | 
25 | Cc1ccc(C2CC(c3cccs3)=NN2C(=O)CCl)cc1 (stereo not given) |  | inconclusive: 89.1 µM [inhibitor, single point]
26 | COc1cccc(-c2cc(N(C)Cc3ccco3)ncn2)c1 |  | active: 44.7 µM
27 | CCCSc1nc(-c2ccc(OC)cc2)cc(-c2ccccc2OC)c1C#N |  | inconclusive: 56.2 µM [inhibitor, partial curve, poor fit]
28 | COc1ccc(Cl)cc1Nc1cc(C)nc2nc(-c3ccccc3C)nn12 | inactive: 7.96% | 
29 | O=C(NCC1CCCO1)C(c1cccs1)N(Cc1cccs1)C(=O)Cn1nnc(-c2cccs2)n1 (stereo not given) | inactive: 7.32% | 
30 | COc1ccccc1Nc1ncc(-c2cccs2)s1 |  | inconclusive: 89.1 µM [inhibitor, single point]
31 | O=C(O)c1ccccc1C(=O)c1cccc2ccccc12 |  | inconclusive: 70.8 µM [inhibitor, partial curve]
32 | COCC(C)N=C1NN=C(c2cc(C)n(Cc3ccccc3Cl)c2C)CS1 (stereo not given) | inactive: -6.62% | 
33 | O=c1ccsn1Cc1ccccc1 |  | inconclusive: 12.6 µM [inhibitor, partial curve, poor fit]
34 | CC(=O)Nc1nc(C)c(-c2csc(Nc3ccc(O)cc3)n2)s1 |  | active: 89.1 µM
35 | O=C(Nc1ccccc1)C1(c2ccccc2)CC1(Cl)Cl (stereo not given) | inactive: 0.752% | 
36 | CCOc1ccc(C(=O)c2cc([N+](=O)[O-])ccc2N2CCOCC2)cc1 |  | inconclusive: 70.8 µM [inhibitor, partial curve, poor fit]
37 | CC(C)C(=O)NC(Nc1cc(C(F)(F)F)ccc1Cl)C(Cl)(Cl)Cl (stereo not given) | inactive: -26.3% | 
38 | O=c1[nH][nH]c2cc([N+](=O)[O-])ccc12 | inactive: -9.12% | 
39 | O=C(Nc1ccc(F)cc1F)c1cc(-c2ccco2)nc2ccccc12 |  | inconclusive: 70.8 µM [inhibitor, single point]
40 | c1ccc(CNCc2ccco2)cc1 | inactive: -11.2% | 
41 | N=C1/C(=C\c2ccc(Br)o2)C(=O)N=C2SC(CC(=O)N3CCCCC3)=NN12 | inactive: 4.17% | 
42 | COc1cc(COCC(O)CN2C(C)CCCC2C)cc(OC)c1OC (stereo not given) |  | inconclusive: 100 µM [inhibitor, single point]
43 | CC1/C=C/C=C/C=C/C=C/C=C/C=C/C=C/C(OC2OC(C)C(O)C(N)C2O)CC2O[C@@](O)(CC(O)CC(O)C(O)CCC(O)CC(O)CC(=O)OC(C)[C@H](C)C1O)CC(O)C2C(=O)O (stereo not given in full) |  | active: 50.1 µM
44 | Cc1ccc(C(=O)N/N=C/c2ccc(-c3ccccc3[N+](=O)[O-])o2)cn1 |  | inconclusive: 63.1 µM [inhibitor, partial curve, poor fit]
45 | CCCCCC/C(C)=C1/SC(=S)NC1=O |  | inconclusive: 50.1 µM [inhibitor, partial curve, poor fit]
